Measured data: PubChem BioAssay AID504764 (Drosophila RNAi Screening Center, 2011)

- Purpose: 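Knock-downs that raise or lower a Notch target reporter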 (primary screen)
- System: Drosophila Kc167 cells
- Reagents: long dsRNA against Drosophila genes
- Duration: about 5 days (4 days dsRNA, then 24 h after transfection)
- Conditions: transfection of constitutively active membrane-tethered Notch lacking the extracellular domain, read 24 h later
- Detection: 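Light from a Notch-responsive E(spl)m3 luciferase reporter under active Notch, with control-promoter and no-Notch reporter wells to normalise; raw counts from paired wells a and b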
- Reading the numbers: induced reporter light, run 1, well a and induced reporter light, run 1, well b: higher = more light from the Notch target reporter with active Notch; control promoter light, run 1, well a and control promoter light, run 1, well b: higher = more light from the viral control promoter (cell number, transfection, viability); uninduced reporter light, run 1, well a: higher = more light from the Notch target reporter without active Notch
- Call rule: 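Hit if the duplicate-averaged log2 ratio of induced to control-promoter light gives a plate-wise z beyond ±2, or induced to uninduced beyond ±1.8; weak-control or discordant-duplicate wells dropped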
- Meaning of the calls: active = modifier hit (raised or lowered Notch signal); inactive = not a hit
The deposit covers about 22,000 reagents; shown is a random part of those that have a named target and a result. Over the whole deposit, 403 (1.9%) were called active. 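Unnormalised raw counts per well; ratio z-scores behind the hit calls and whether each hit raises or lowers signal are not deposited.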 Reagents against one gene are numbered here. Not given: the amount of reagent.

target	reagent	induced reporter light, run 1, well a	induced reporter light, run 1, well b	control promoter light, run 1, well a	control promoter light, run 1, well b	uninduced reporter light, run 1, well a	call
jet (jetlag)	1	1.57e5	1.44e5	1.70e5	1.82e5	15020	inactive
uif (uninflatable)	1	96805	98865	1.34e5	1.16e5	7265	inactive
uif (uninflatable)	2	66930	57250	59465	64470	3715	inactive
wtrw (water witch)	1	97245	1.08e5	64295	55640	6565	inactive
wtrw (water witch)	2	97220	86015	1.29e5	98225	7155	inactive
Or49a (Odorant receptor 49a)	1	1.01e5	1.07e5	1.25e5	1.14e5	8000	inactive
Uba5 (Ubiquitin-like activating enzyme 5)	1	1.32e5	1.10e5	2.41e5	1.99e5	8940	inactive
CG3557	1	1.65e5	1.91e5	1.94e5	2.13e5	11745	inactive
CG15873	1	1.69e5	1.95e5	1.86e5	1.71e5	10770	inactive
CG32718	1	96120	91100	92205	77905	5735	inactive
ckd (cracked)	1	95685	1.19e5	1.68e5	1.76e5	7032	inactive
CG31546	1	1.35e5	1.10e5	1.03e5	85040	11125	inactive
CG31817	1	75370	80340	70740	57340	5315	inactive
CG31817	2	84270	77690	61960	45840	5705	inactive
CG9988	1	1.53e5	1.23e5	2.14e5	1.97e5	12690	inactive
CG13386	1	1.32e5	1.77e5	96320	1.41e5	21250	inactive
Rbfox1 (RNA-binding Fox protein 1)	1	1.46e5	1.25e5	1.16e5	1.61e5	12255	inactive
Rbfox1 (RNA-binding Fox protein 1)	2	1.59e5	1.88e5	2.50e5	2.33e5	9985	inactive
Rbfox1 (RNA-binding Fox protein 1)	3	1.41e5	1.12e5	79730	94520	7350	inactive
CG31300	1	1.46e5	1.49e5	1.98e5	2.25e5	11215	inactive
CG32132 (retired record)	1						inactive
bard	1	1.74e5	1.87e5	2.06e5	2.13e5	13115	inactive
Prosalpha2 (Proteasome alpha2 subunit)	1	88550	78125	80535	53665	5225	inactive
CG13876	1	92455	1.19e5	1.77e5	1.55e5	8245	inactive
CG12239	1	1.40e5	1.26e5	1.69e5	1.55e5	9810	inactive
Vti1b (Vesicle transport through interaction with t-SNAREs 1b)	1	1.75e5	2.03e5	2.26e5	2.13e5	19270	inactive
Vti1b (Vesicle transport through interaction with t-SNAREs 1b)	2	1.62e5	1.50e5	2.27e5	2.05e5	13142	inactive
CG11147	1	1.04e5	1.26e5	1.36e5	1.08e5	6405	inactive
CG3955	1	1.71e5	1.31e5	1.15e5	1.30e5	10810	inactive
CG33958	1	72460	80565	84460	1.00e5	6870	inactive
CG33958	2	1.43e5	1.16e5	1.50e5	1.08e5	11815	inactive
Pph13 (PvuII-PstI homology 13)	1	53335	51395	31865	33760	11278	inactive
Adgf-E (Adenosine deaminase-related growth factor E)	1	87245	94185	1.20e5	1.17e5	7432	inactive
Tsp42Er (Tetraspanin 42Er)	1	2.12e5	2.35e5	2.78e5	2.66e5	18955	inactive
CG7227	1	1.92e5	1.39e5	1.55e5	1.38e5	13735	inactive
CG17746	1	1.70e5	1.71e5	85665	24495	12160	active
Gagr (Gag-related)	1	1.11e5	1.43e5	67725	80220	7895	inactive
Spn100A (Serpin 100A)	1	1.65e5	1.50e5	2.36e5	2.26e5	11550	inactive
Dlc90F (Dynein light chain 90F)	1	1.57e5	1.62e5	2.02e5	2.04e5	14755	inactive
Vps35 (Vacuolar protein sorting 35)	1	2.77e5	2.46e5	2.02e5	1.70e5	17695	inactive
Spn28Dc (Serpin 28Dc)	1	1.11e5	1.23e5	66430	1.06e5	17530	inactive
CG11630	1	68400	58570	1.04e5	75220	4210	inactive
CG34429	1	1.62e5	1.37e5	2.17e5	1.80e5	8742	inactive
crm (cramped)	1	2.14e5	2.45e5	3.10e5	3.33e5	14860	inactive
CG13937	1	2.26e5	1.68e5	2.41e5	2.76e5	13160	inactive
Dsor1 (Downstream of raf1)	1	2.01e5	2.12e5	3.38e5	2.42e5	14428	inactive
Naglu (N-acetyl-alpha-glucosaminidase)	1	2.09e5	1.95e5	2.11e5	2.76e5	15392	inactive
CG11131	1	1.32e5	1.45e5	1.04e5	1.28e5	7640	inactive
CG7988	1	2.14e5	1.73e5	2.17e5	2.05e5	11315	inactive
CG17147	1	52005	53895	50520	53480	2805	inactive

Quoted from the entries so far, 7 entries:
target	reagent	induced reporter light, run 1, well a	induced reporter light, run 1, well b	control promoter light, run 1, well a	control promoter light, run 1, well b	uninduced reporter light, run 1, well a	call
ckd (cracked)	1	95685	1.19e5	1.68e5	1.76e5	7032	inactive
CG31546	1	1.35e5	1.10e5	1.03e5	85040	11125	inactive
CG31817	1	75370	80340	70740	57340	5315	inactive
CG31817	2	84270	77690	61960	45840	5705	inactive
CG9988	1	1.53e5	1.23e5	2.14e5	1.97e5	12690	inactive
CG13386	1	1.32e5	1.77e5	96320	1.41e5	21250	inactive
Rbfox1 (RNA-binding Fox protein 1)	1	1.46e5	1.25e5	1.16e5	1.61e5	12255	inactive
